{
  "source": "patent US7893108B2",
  "about": "“Antiviral methods and compositions” (priority 2004, dated 2011)",
  "key": {"[1]": {"target": "T1, GST-UL44ΔC290 / UL54-derived peptide interaction (Human cytomegalovirus, UniProt P16790)", "T1 construct": "GST-UL44ΔC290 fusion protein, which contains the N-terminal 290 residues of HCMV UL44; made in house; host or cells: E. coli BL21 (DE3)pLysS", "format": "binding, HCMV", "from_the_text": "To identify small molecule inhibitors of the UL54-UL44 interaction, we developed an assay based on fluorescence polarization (FP) (Dandliker et al., 1981). In this assay, a peptide corresponding to the C-terminal 22 residues of UL54 (here named peptide 1, as in Loregian et al. (Loregian et al., 2003)), which was labeled with the fluorophore Oregon Green, is mixed with UL44ΔC290, a truncated protein which retains all known biochemical activities of full-length UL44 (Loregian et al., 2004b), fused to glutathione S-transferase (GST-UL44ΔC290).\nWe next investigated whether this assay could detect a known inhibitor of the UL54-UL44 interaction. To this end, a binding reaction of 2.5 μM GST-UL44ΔC290 and 3 nM labeled peptide was titrated with increasing concentrations of unlabeled peptide 1 (FIG. 4B).\nFP assays. […] After 15-min incubation at room temperature, FP values were determined by using an Analyst plate reader (LJL Biosystems) at the ICCB.\nA fluorescence polarization (FP) assay was used to identify compounds that inhibit HCMV polymerase subunit interactions. […] After 5-min incubation at room temperature, the FP values were determined by using an Analyst plate reader (LJL Biosystems) at the ICCB. […]"}, "[2]": {"target": "T2, full-length UL54 / UL44 interaction (Human cytomegalovirus, UniProt P16790)", "T2 construct": "made in house; host or cells: baculovirus expression; proteins provided by H. S. Marsden (Institute of Virology, Glasgow)", "conditions": "Loregian et al., 2003; read-out: IC50 for inhibition of UL54-UL44 physical interaction, previously determined; cited from earlier work"}, "UL54-UL44 complex": {"target": "UL54-UL44 complex (Human cytomegalovirus, UniProt P16790)", "conditions": "previously shown (Loregian et al., 2003); read-out: IC50 for inhibition of the rate of incorporation of nucleotides; cited from earlier work"}, "GST-UL44ΔC290": {"target": "T3, GST-UL44ΔC290 (Human cytomegalovirus, UniProt P16790)", "T3 construct": "GST-UL44ΔC290 fusion protein, which contains the N-terminal 290 residues of HCMV UL44", "conditions": "GST-UL44ΔC290 and unlabeled UL54 peptide; read-out: Kd previously determined by isothermal titration calorimetry; cited from earlier work"}, "[3]": {"target": "T2, full-length UL54 / UL44 interaction", "assay": "UL54-UL44 interaction ELISA", "format": "binding, HCMV", "conditions": "read-out: IC50 for inhibition of the UL54-UL44 physical interaction; full-length baculovirus-expressed proteins", "experimental": "In this assay, binding between purified baculovirus-expressed UL54 and UL44, which was tagged with an EEF epitope, was detected using an antibody that recognizes the epitope tag (Loregian et al., 2003).\nUL54-UL44 interaction ELISA. This assay was conducted as described in (Loregian et al., 2003), testing various concentrations of each compound. After final washes, the chromogenic substrate 2,2′-azino-bis(3-ethylbenzothiazoline-6-sulphonic acid (ABTS, Pierce) in citrate phosphate buffer (pH 4.0) containing 0.01% hydrogen peroxide was added and absorbance was read at 405 nm on a Victor plate reader (Wallac).\nAnother assay that was used to test the effect of the compounds on the interaction of UL44 and UL54 is an ELISA interaction assay, which measures the interaction of the two full length proteins with each other. This assay was conducted as described in Loregian et al., J. Virol. 2003, 77:8336-8344, testing different concentrations (0, 3.12, 6.25, 12.5, 25, 50, 100, 200 μM) of each compound."}, "UL54 plus GST-UL44ΔC290": {"target": "T4, UL54 plus GST-UL44ΔC290 (Human cytomegalovirus, UniProt P16790)", "T4 construct": "GST-UL44ΔC290 fusion protein, which contains the N-terminal 290 residues of HCMV UL44; made in house; host or cells: UL54: in vitro transcription/translation; GST-UL44ΔC290: E. coli BL21 (DE3)pLysS", "assay": "long-chain DNA synthesis by UL54 in the presence of UL44", "format": "biochemical, HCMV", "conditions": "read-out: IC50 for inhibition of long-chain DNA synthesis; phosphorimager quantification; 6.25-100 μM", "experimental": "To analyze the ability of the compounds to interfere with functional UL54-UL44 interactions, we tested their ability to inhibit long-chain DNA synthesis by UL54 in the presence of UL44 employing a poly(dA)-oligo(dT)12-18 template-primer.\nDNA polymerase assays. The effects of compounds were tested in an assay that measures long-chain DNA synthesis as described in Loregian et al. (Loregian et al., 2004a), with 5 μl of in vitro-transcribed and -translated UL54 plus 800 fmol of GST-UL44ΔC290 in the absence or in the presence of various amounts of each compound.\nThe effect of the compounds was also tested in an assay that measures long chain (Lc) DNA synthesis as described in Loregian et al., J. Virol. […]"}},
  "note": "Where two headings read alike, the source gives them in different places. At least one compound was matched to its structure with a doubt left. Peptide text beside a SMILES is read from it. * marks the point of attachment. X1 = O=C1OC2(c3cc(F)c(O)cc3Oc3cc(O)c(F)cc32)c2c(F)c(F)c(SCC(=O)*)c(F)c21",
  "data": [
    {"compound": "CC(C)C[C@H](NC(=O)[C@H](CCCNC(=N)N)NC(=O)[C@H](CCCNC(=N)N)NC(=O)[C@@H]1CCCN1C(=O)[C@H](CC(C)C)NC(=O)CSc1c(F)c(F)c2c(c1F)C(=O)OC21c2cc(F)c(O)cc2Oc2cc(O)c(F)cc21)C(=O)N[C@@H](Cc1c[nH]cn1)C(=O)N[C@@H](CC(C)C)C(=O)N[C@@H](CCC(=O)O)C(=O)N1CCC[C@H]1C(=O)N[C@@H](C)C(=O)N[C@@H](Cc1ccccc1)C(=O)N[C@@H](CC(C)C)C(=O)N1CCC[C@H]1C(=O)N[C@@H](Cc1ccc(O)cc1)C(=O)N[C@@H](CO)C(=O)N[C@H](C(=O)N[C@@H](CCCCN)C(=O)N[C@@H](C)C(=O)N[C@@H](Cc1c[nH]cn1)C(=O)N[C@@H](CCC(=O)O)C(=O)N[C@@H](CS)C(=O)N[C@@H](CS)C(=O)O)C(C)C", "note": "[labeled peptide 1, reference compound] (X1-LPRRLHLEPAFLPYSVKAHECC-OH; C-terminus assumed)", "values": [
      {"measurement": "Kd", "setting": "[1]; read-out: Kd for the interaction between GST-UL44ΔC290 and the UL54 peptide, Oregon Green labeled peptide, 3 mM labeled peptide, from FIG. 4A", "result": "~1", "unit": "µM"}
    ]},
    {"compound": "CC(C)C[C@H](NC(=O)[C@H](CCCNC(=N)N)NC(=O)[C@H](CCCNC(=N)N)NC(=O)[C@@H]1CCCN1C(=O)[C@@H](N)CC(C)C)C(=O)N[C@@H](Cc1c[nH]cn1)C(=O)N[C@@H](CC(C)C)C(=O)N[C@@H](CCC(=O)O)C(=O)N1CCC[C@H]1C(=O)N[C@@H](C)C(=O)N[C@@H](Cc1ccccc1)C(=O)N[C@@H](CC(C)C)C(=O)N1CCC[C@H]1C(=O)N[C@@H](Cc1ccc(O)cc1)C(=O)N[C@@H](CO)C(=O)N[C@H](C(=O)N[C@@H](CCCCN)C(=O)N[C@@H](C)C(=O)N[C@@H](Cc1c[nH]cn1)C(=O)N[C@@H](CCC(=O)O)C(=O)N[C@@H](CS)C(=O)N[C@@H](CS)C(=O)O)C(C)C", "note": "[peptide 1, reference compound] (H-LPRRLHLEPAFLPYSVKAHECC-OH; N-terminus and C-terminus assumed)", "values": [
      {"measurement": "IC50", "setting": "[2]", "result": 11, "unit": "µM"},
      {"measurement": "IC50", "setting": "UL54-UL44 complex", "result": 20, "unit": "µM"},
      {"measurement": "IC50", "setting": "[1]; read-out: IC50 for inhibition of FP (UL44-UL54 peptide interaction), 2.5 μM GST-UL44ΔC290 and 3 nM labeled peptide", "result": 5, "unit": "µM"},
      {"measurement": "Kd", "setting": "GST-UL44ΔC290", "result": 0.52, "unit": "µM"},
      {"measurement": "IC50", "setting": "[3]", "result": 15, "unit": "µM"},
      {"measurement": "IC50", "setting": "UL54 plus GST-UL44ΔC290", "result": 18, "unit": "µM"}
    ]}
  ]
}
